The values below come from PMC12752606, “METTL10‐Mediated PIAS3 Methylation Links Purine Metabolism to Gastric Cancer Progression” (Advanced Science, 2025).

Chains of the proteins cited; added tags and fusions are not shown. Lines headed by an entry give the natural chain unless they say otherwise; changes in a name come on top. A line that says so, or that is headed by a name, gives the form on record, which may keep a tag or linker.
Flag-METTL10 (Q5JPI9, form named): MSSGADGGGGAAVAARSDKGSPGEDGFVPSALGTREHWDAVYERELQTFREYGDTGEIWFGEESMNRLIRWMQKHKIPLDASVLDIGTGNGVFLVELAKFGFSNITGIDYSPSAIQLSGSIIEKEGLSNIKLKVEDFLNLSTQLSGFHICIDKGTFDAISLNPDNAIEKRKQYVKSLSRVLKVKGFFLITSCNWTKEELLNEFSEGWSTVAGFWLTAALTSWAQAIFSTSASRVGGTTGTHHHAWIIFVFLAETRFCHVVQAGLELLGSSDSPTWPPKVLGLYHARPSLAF

No constants are given. Whether binding was seen depends on the method and setting. Binding seen in cells or lysates may run through a third protein. These calls come from enrichment with a bait or labelling near it, and not all partners need be listed.

This assay addresses Flag-METTL10 (methyltransferase-like 10) (UniProt Q5JPI9). Nature of the assay: affinity purification with mass spectrometry; cells transfected with Flag-Vector or Flag-METTL10 (HEK293T by the results, MKN45 by the methods); Flag-M2 magnetic beads, 4 °C overnight; whole gel lanes by LC-MS/MS.

B1: PIAS3, endogenous (enzyme, UniProt Q9Y6X2 1-628)
chain: MAELGELKHMVMSFRVSELQVLLGFAGRNKSGRKHELLAKALHLLKSSCAPSVQMKIKELYRRRFPRKTLGPSDLSLLSLPPGTSPVGSPGPLAPIPPTLLAPGTLLGPKREVDMHPPLPQPVHPDVTMKPLPFYEVYGELIRPTTLASTSSQRFEEAHFTFALTPQQVQQILTSREVLPGAKCDYTIQVQLRFCLCETSCPQEDYFPPNLFVKVNGKLCPLPGYLPPTKNGAEPKRPSRPINITPLARLSATVPNTIVVNWSSEFGRNYSLSVYLVRQLTAGTLLQKLRAKGIRNPDHSRALIKEKLTADPDSEVATTSLRVSLMCPLGKMRLTVPCRALTCAHLQSFDAALYLQMNEKKPTWTCPVCDKKAPYESLIIDGLFMEILSSCSDCDEIQFMEDGSWCPMKPKKEASEVCPPPGYGLDGLQYSPVQGGDPSENKKKVEVIDLTIESSSDEEDLPPTKKHCSVTSAAIPALPGSKGVLTSGHQPSSVLRSPAMGTLGGDFLSSLPLHEYPPAFPLGADIQGLDLFSFLQTESQHYGPSVITSLDEQDALGHFFQYRGTPSHFLGPLAPTLGSSHCSATPAPPPGRVSSIVAPGGALREGHGGPLPSGPSLTGCRSDIISLD
In the case of B1, the binding entry is on record as “binds”.
